Publication PMC7299998, “Recombinant Bri3 BRICHOS domain is a molecular chaperone with effect against amyloid formation and non-fibrillar protein aggregation” (Scientific Reports, 2020)
No constants are given. Whether binding was seen depends on the method and setting.

Target: T1, citrate synthase (CS) from porcine heart (porcine, UniProt P00889 28-464)
T1 construct: citrate synthase, mitochondrial, from porcine heart; Used native (fresh) or partly heat-denatured (2 h at 45 °C); the assays tell the two states apart; source: bought: Sigma-Aldrich (from porcine heart)
T1 sequence (looked up): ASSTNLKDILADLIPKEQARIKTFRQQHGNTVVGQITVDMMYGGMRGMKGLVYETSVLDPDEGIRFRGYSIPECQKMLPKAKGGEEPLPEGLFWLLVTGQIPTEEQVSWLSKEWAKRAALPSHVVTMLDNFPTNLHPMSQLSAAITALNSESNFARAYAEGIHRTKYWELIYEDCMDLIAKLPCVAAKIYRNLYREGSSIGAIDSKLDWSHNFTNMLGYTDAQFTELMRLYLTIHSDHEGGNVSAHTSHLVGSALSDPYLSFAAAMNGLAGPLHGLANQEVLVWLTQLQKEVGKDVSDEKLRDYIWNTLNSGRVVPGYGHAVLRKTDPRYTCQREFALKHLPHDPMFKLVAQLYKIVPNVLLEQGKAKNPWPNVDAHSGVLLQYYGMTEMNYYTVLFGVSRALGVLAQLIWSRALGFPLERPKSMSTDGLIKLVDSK
Assay: SEC; fresh, non-heat-treated samples (1200 nM CS alone; freshly mixed 1:2 CS:rh Bri3 BRICHOS); Superose 6, 20 mM ammonium acetate pH 8.0, 0.7 ml/min; peak fractions by reducing SDS-PAGE; both purified

B1: citrate synthase (CS) from porcine heart (enzyme, UniProt P00889 28-464)
chain: T1 sequence (looked up)
  binding: no binding (tested: 1200 nM)
